From paper PMC5013017

Amino acid sequences for entries named in this document (tags omitted).
UniProt P22314: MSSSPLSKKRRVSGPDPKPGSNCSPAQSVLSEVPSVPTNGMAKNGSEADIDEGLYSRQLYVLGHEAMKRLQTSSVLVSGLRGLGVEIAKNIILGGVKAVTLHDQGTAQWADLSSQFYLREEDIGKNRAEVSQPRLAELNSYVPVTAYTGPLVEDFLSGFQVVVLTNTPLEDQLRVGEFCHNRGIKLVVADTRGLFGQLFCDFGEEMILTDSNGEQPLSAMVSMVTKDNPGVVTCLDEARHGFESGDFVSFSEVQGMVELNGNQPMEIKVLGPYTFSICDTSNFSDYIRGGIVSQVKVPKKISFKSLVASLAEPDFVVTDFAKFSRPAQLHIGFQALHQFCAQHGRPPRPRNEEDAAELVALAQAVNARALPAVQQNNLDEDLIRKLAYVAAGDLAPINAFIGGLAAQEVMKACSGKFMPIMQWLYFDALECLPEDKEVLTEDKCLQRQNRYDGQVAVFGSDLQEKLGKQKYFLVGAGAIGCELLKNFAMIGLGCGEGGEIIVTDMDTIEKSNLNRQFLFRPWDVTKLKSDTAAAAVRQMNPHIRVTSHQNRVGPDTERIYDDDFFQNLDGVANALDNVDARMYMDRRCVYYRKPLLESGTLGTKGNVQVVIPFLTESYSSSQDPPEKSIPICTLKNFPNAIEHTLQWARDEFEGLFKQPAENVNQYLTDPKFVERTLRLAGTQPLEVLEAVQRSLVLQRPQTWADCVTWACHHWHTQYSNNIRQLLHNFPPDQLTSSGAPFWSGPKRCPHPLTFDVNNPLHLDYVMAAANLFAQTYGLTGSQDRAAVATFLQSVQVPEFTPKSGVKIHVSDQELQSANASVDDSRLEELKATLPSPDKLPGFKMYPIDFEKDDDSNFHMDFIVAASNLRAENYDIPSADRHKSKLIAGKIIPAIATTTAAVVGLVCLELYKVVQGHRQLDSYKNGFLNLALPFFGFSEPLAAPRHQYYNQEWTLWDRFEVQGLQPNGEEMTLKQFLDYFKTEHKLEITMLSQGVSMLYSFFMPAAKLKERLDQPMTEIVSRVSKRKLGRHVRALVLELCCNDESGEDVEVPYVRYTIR
UniProt Q9Y4G6: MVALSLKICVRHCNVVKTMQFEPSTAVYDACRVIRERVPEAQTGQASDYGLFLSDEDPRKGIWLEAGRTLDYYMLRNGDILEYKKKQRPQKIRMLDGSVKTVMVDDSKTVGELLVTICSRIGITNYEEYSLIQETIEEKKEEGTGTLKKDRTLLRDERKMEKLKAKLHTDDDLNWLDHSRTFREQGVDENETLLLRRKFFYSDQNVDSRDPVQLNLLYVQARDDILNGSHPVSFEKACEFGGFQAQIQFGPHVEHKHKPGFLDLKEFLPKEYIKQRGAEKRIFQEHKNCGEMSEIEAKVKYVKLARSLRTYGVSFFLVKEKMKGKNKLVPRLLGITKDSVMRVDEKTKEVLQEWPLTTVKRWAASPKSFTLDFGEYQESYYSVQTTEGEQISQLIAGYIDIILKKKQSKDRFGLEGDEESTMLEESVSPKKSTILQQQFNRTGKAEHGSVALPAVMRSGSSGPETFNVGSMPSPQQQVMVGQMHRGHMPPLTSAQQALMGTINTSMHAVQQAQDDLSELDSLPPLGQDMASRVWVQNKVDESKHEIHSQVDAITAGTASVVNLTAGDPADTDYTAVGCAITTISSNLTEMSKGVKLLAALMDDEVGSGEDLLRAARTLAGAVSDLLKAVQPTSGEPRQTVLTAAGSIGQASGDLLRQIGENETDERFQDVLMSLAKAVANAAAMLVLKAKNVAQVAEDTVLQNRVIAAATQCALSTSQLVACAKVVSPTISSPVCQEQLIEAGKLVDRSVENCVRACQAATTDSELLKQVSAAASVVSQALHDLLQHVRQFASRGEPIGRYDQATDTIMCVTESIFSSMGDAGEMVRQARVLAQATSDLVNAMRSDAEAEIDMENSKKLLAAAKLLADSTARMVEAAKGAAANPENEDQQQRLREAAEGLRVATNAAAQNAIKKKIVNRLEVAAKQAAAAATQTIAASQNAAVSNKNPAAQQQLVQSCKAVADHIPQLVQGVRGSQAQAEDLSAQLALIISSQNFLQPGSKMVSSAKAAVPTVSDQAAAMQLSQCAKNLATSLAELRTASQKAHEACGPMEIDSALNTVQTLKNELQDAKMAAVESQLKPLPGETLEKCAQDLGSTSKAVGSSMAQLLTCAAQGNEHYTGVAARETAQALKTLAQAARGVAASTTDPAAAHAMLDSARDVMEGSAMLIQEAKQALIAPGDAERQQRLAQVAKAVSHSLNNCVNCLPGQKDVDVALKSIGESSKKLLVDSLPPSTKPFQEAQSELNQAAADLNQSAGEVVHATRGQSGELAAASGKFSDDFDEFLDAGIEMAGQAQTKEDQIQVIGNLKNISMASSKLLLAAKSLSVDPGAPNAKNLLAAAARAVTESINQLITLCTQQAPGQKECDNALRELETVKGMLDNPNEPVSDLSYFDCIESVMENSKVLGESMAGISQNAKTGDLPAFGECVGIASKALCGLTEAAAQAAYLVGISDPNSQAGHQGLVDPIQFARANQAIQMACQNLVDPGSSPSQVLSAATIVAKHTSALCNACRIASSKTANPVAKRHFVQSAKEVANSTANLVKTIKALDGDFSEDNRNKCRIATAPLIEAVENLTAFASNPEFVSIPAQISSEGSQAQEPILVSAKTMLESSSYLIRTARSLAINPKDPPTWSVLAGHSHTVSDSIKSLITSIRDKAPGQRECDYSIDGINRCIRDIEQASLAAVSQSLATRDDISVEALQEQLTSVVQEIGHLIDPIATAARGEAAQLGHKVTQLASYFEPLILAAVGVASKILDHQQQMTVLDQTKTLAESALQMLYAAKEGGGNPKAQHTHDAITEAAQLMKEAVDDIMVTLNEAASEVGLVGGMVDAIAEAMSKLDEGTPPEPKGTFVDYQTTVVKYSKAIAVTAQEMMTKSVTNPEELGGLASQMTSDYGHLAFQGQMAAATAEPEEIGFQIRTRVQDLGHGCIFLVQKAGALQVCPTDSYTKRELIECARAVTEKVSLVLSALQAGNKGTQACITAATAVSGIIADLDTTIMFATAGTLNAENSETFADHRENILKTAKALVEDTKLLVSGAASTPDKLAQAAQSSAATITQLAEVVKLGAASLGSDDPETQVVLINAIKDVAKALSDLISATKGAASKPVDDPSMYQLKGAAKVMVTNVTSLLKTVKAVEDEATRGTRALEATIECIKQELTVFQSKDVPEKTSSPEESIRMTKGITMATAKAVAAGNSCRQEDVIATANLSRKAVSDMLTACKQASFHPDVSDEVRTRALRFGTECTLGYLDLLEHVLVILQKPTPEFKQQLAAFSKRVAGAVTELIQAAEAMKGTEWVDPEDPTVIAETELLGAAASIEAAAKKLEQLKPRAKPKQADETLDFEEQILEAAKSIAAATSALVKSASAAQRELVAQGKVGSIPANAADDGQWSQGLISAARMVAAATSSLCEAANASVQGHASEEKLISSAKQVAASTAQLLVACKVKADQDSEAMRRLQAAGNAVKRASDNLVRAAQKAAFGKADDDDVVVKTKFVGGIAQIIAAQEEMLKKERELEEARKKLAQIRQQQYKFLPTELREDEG
UniProt Q16143: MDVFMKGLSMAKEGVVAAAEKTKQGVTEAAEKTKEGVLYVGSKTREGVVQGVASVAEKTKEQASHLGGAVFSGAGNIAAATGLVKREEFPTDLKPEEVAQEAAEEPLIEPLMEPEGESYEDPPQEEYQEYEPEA
UniProt P14136: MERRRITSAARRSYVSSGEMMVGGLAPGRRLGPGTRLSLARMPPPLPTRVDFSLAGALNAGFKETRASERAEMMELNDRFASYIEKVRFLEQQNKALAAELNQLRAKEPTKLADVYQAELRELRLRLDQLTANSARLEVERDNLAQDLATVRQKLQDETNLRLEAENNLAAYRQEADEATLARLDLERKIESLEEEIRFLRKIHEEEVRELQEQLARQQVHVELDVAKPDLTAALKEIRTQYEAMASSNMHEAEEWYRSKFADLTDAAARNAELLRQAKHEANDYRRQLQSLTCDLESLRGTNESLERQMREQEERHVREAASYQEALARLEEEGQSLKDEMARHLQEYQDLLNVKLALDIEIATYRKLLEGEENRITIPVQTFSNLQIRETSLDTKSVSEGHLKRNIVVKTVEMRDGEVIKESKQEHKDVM
UniProt P27338: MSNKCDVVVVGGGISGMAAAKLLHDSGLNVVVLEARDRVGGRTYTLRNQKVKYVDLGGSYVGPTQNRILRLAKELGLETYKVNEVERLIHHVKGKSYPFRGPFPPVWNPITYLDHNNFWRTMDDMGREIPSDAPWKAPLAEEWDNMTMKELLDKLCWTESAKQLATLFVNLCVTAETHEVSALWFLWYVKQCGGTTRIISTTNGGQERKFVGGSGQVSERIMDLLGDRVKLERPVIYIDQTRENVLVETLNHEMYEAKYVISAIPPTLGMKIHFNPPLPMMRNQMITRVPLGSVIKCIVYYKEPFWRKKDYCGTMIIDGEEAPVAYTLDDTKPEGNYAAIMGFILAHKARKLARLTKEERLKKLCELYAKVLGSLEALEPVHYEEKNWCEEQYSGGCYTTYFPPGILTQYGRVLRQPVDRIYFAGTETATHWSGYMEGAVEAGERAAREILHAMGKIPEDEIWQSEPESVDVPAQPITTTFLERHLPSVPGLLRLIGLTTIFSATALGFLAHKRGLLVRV
UniProt O15061: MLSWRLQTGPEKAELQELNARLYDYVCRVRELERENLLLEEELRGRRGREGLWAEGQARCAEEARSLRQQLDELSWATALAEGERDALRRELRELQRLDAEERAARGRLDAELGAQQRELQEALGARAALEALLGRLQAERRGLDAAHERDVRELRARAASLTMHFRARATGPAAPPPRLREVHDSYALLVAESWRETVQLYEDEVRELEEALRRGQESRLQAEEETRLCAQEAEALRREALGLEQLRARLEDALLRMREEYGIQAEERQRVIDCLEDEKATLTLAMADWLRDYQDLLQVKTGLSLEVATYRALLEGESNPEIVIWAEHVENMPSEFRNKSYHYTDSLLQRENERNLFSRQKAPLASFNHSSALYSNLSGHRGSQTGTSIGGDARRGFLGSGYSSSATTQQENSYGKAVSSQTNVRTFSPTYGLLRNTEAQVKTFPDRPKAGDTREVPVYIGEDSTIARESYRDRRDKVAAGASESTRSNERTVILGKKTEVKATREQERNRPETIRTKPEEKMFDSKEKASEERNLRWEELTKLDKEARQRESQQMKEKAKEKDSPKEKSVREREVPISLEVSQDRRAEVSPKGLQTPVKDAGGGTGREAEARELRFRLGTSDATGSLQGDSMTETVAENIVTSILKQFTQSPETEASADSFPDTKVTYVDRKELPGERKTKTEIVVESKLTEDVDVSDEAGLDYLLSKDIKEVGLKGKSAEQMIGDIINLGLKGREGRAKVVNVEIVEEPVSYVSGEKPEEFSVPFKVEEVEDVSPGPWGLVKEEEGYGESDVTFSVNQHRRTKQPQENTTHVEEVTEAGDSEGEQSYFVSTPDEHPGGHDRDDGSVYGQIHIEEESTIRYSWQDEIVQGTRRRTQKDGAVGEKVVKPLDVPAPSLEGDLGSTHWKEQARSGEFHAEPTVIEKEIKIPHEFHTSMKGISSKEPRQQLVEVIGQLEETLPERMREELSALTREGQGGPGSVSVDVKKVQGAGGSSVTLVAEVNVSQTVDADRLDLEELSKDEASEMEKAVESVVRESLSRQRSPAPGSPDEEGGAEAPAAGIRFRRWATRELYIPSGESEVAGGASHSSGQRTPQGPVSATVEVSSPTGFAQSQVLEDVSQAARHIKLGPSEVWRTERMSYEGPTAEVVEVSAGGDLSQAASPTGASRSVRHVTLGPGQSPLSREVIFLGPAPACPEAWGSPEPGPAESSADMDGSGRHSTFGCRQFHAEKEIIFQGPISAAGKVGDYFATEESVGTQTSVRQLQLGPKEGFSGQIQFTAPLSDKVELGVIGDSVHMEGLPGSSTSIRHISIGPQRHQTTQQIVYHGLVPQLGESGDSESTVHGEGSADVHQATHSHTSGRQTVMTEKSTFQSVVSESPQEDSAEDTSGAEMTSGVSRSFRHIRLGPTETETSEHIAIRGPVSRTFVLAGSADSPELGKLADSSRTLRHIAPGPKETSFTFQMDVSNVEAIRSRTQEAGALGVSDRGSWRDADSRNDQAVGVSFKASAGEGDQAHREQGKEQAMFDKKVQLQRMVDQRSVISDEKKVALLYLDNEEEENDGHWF

target: amyloid β peptide, Aβ1-42 (human (endogenous in hippocampus)) (UniProt P05067); assay: affinity purification with mass spectrometry; pools of caudal hippocampus (3 AD, 3 NC); homogenate on Protein-G magnetic beads coated with antibody to total tau (ab80579) or to Aβ (ab11132); rinsed 3x, eluted; 1% sarcosyl-insoluble pellet resolved on SDS gel, slices digested, LC-MS/MS

Substance | binding
Na+/K+ transporter ATPase α2 (from UniProt P50993 1-1020) | binds
UBA-1 (from UniProt P22314 1-1058) | binds
excitatory amino acid transporter 2 (from UniProt P43004 1-574) | binds
microtubule-associated protein MAP1A (from UniProt P78559 1-2803) | binds
talin 2 (from UniProt Q9Y4G6 1-2542) | binds
α-enolase (from UniProt P06733 1-434) | binds
β synuclein (from UniProt Q16143 1-134) | binds

The next lines start with the values.

binding | Substance
binds | GFAP (from UniProt P14136 1-432)
binds | amine oxidase B (from UniProt P27338 1-520)
binds | lamin A/C (from UniProt P02545 1-646)
binds | microtubule-associated protein 1B (from UniProt P46821 1-2468)
binds | synemin (from UniProt O15061 1-1565)
binds | vinculin (from UniProt P18206-2)

These are yes or no findings as the source states them, for the method shown. In cells and extracts the contact can be indirect. These calls come from enrichment with a bait or labelling near it, and not all partners need be listed.
